1 molecule from article PMC7790283 can be followed below.

Results are given in words; binding and its absence hold for the method and conditions named. Binding seen in cells or lysates may run through a third protein. Here binding means that the protein was enriched with, or labelled near, the bait; the list need not be complete.

In this assay the target is T1, CCCTC-binding factor (CTCF) (human (endogenous in MCF10A)) (UniProt P49711).
T1 sequence: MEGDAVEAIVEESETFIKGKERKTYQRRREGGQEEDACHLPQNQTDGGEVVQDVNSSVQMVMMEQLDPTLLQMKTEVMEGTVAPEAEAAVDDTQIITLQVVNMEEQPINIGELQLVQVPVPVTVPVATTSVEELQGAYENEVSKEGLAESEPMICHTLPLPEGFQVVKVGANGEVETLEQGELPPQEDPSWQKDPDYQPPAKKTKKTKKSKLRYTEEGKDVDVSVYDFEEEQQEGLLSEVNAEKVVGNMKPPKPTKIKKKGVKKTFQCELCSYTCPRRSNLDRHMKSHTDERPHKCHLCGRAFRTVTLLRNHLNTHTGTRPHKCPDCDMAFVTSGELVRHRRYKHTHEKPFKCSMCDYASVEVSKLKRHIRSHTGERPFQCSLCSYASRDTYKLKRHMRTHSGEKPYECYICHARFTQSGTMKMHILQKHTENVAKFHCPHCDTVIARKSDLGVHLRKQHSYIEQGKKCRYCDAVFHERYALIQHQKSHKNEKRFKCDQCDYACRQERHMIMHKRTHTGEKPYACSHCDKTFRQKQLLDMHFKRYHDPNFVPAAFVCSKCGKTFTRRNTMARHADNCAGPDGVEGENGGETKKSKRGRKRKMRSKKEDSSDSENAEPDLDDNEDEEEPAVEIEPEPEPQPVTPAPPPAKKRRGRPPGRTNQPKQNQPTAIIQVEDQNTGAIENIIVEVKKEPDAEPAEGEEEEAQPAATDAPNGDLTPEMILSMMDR
Description: affinity purification with mass spectrometry; CTCF complexes immunoprecipitated from normal MCF-10A cells with mouse anti-CTCF (B-5; Santa Cruz) or an IgG control; Q Exactive mass spectrometer; false discovery rate 1%.

B1: Serine/arginine-rich splicing factor SC-35 (protein, UniProt Q01130 1-221)
chain: MSYGRPPPDVEGMTSLKVDNLTYRTSPDTLRRVFEKYGRVGDVYIPRDRYTKESRGFAFVRFHDKRDAEDAMDAMDGAVLDGRELRVQMARYGRPPDSHHSRRGPPPRRYGGGGYGRRSRSPRRRRRSRSRSRSRSRSRSRSRYSRSKSRSRTRSRSRSTSKSRSARRSKSKSSSVSRSRSRSRSRSRSRSPPPVSKRESKSRSRSKSPPKSPEEEGAVSS
For the molecule B1, the binding result is reported as “binds”.
